# Assay results: PMC7819943, “Rice protein-binding microarrays: a tool to detect cis-acting elements near promoter regions in rice”
# The list shows a part of the results.
# Target: T1, OsSMF1 (Oryza sativa, UniProt Q6ZLB0 1-436)
# T1 sequence: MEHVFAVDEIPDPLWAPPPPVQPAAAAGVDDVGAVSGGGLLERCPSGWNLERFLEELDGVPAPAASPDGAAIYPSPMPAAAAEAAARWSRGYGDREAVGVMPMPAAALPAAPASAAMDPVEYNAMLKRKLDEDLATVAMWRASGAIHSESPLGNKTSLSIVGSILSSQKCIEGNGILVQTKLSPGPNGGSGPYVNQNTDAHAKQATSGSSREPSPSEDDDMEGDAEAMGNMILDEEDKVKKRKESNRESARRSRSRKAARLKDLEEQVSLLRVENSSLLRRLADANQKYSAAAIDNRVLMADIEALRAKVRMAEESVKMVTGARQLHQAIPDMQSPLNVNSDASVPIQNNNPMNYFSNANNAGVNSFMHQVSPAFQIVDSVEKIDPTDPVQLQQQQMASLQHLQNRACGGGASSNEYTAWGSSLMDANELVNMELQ
# Assay: protein-binding microarray (RPBM); PBS, 2% BSA, 51.3 ng/ul salmon testes DNA, 50 uM zinc acetate, 200 nM TF, 25 C, 1 h; high values mean tight binding
# Conditions: protein: recombinant; tags: N-terminal polyhistidine and DsRed monomer fusion (pET32a); chain copies: 2; label: CyDye5-dUTP incorporated in the synthesized complementary strand; 3' TTTTT single-stranded linker to array surface; dsDNA, one strand shown
# Method in brief: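 The binding signal for each feature is its fluorescence intensity in arbitrary units. An Axon 4000B scanner was used to read a custom Agilent array that had been made double-stranded with Cy5-dUTP primer extension, blocked with 2% BSA, incubated at 25 °C for 1 h with 200 nM protein in PBS, 2% BSA, salmon testes DNA and 50 µM zinc acetate, and washed. The protein was an N-terminal polyhistidine–DsRed transcription factor fusion from E. coli BL21-CodonPlus, purified on Ni–NTA.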
row,Sequence,binding signal
1,GATGGGGTCCATGCACGCAAGGTCGCGCTGGCGCGGGCGGCGGAGTCACCTAGTGCAG,4760 fluorescence intensity (a.u.)
2,ATGGATGGGACTTGAGTGCGTGGCATAATTACATGCAAGCCGGAGTCACCTAGTGCAG,7640 fluorescence intensity (a.u.)
3,CTTTTGCTTTCCCGTCGTCTCGTTGCCGACGTCAGATCGACGGAGTCACCTAGTGCAG,6390 fluorescence intensity (a.u.)
4,ACGCGGCCACGACGTGGTTTGGTTTGGTGGTTACGGCGCACGGAGTCACCTAGTGCAG,3300 fluorescence intensity (a.u.)
5,TCGGGTCGGGCACAAGGCGATGCCGTCAGATTCCAGCAAGCGGAGTCACCTAGTGCAG,6020 fluorescence intensity (a.u.)
6,CGGAGCAACATTCCACGTTGTTTTCTTACCAATTTGACTGCGGAGTCACCTAGTGCAG,3290 fluorescence intensity (a.u.)
7,GAGAAGACAGAATGGGCCGTGTCACTGTGAGTCGACAGATCGGAGTCACCTAGTGCAG,3370 fluorescence intensity (a.u.)
8,TGATCTTATTATGCATCATGACACGTACTGAGAGCAACATCGGAGTCACCTAGTGCAG,3320 fluorescence intensity (a.u.)
9,GCCTCCACGCAATACACGTCAAATCAATTTAGGGTTTGCTCGGAGTCACCTAGTGCAG,7900 fluorescence intensity (a.u.)
10,TAAGCGTCACGTCAGTGCCACGTTGAGAGACGAAAATCGGCGGAGTCACCTAGTGCAG,9460 fluorescence intensity (a.u.)
11,GGACGTTGGGCCAGCCGCAAGTGGATTGGACAATTTGGACCGGAGTCACCTAGTGCAG,28100 fluorescence intensity (a.u.)
12,TCCAATCTCGGGTTCACATCCCCTGCCATCCAGCTCATACCGGAGTCACCTAGTGCAG,5230 fluorescence intensity (a.u.)
13,ATCGGACGCCTCAGGTTGCGCCACGCGTCACGCAGCGGGGCGGAGTCACCTAGTGCAG,8870 fluorescence intensity (a.u.)
14,TGGGGAGGGGAGGGAGAGGTGTCGTCAACAGGGAGGGAGGCGGAGTCACCTAGTGCAG,5790 fluorescence intensity (a.u.)
15,GGGTTGAGCACAGCAGTTTACAGTAGTGTTATTTCGTATTCGGAGTCACCTAGTGCAG,3550 fluorescence intensity (a.u.)
16,TTGTGGCCTGCGTCCTCCTCCTGGACCTTCTCCCCTTCCCCGGAGTCACCTAGTGCAG,3180 fluorescence intensity (a.u.)
17,CGAATGTATTGGAGCCATGCATGCCGTGGCCTTTGATGCACGGAGTCACCTAGTGCAG,32400 fluorescence intensity (a.u.)
18,CGTAGCAACCACAAGTTACACGCAGCAATTTGCACATCACCGGAGTCACCTAGTGCAG,3440 fluorescence intensity (a.u.)
19,CTTCTACCTAGTTCTCCCTTAGCCCTTGTCTATACGCATCCGGAGTCACCTAGTGCAG,3870 fluorescence intensity (a.u.)
20,GTGGTCTGATAAGTGATGATGATGTTTCAGAGGTTTATTCCGGAGTCACCTAGTGCAG,3930 fluorescence intensity (a.u.)
21,GATGCAGACGTGTTCTTGTCTCACCCTTCACCTGCATGATCGGAGTCACCTAGTGCAG,6110 fluorescence intensity (a.u.)

# Part of the list above, with tabs.
row	Sequence	binding signal
16	TTGTGGCCTGCGTCCTCCTCCTGGACCTTCTCCCCTTCCCCGGAGTCACCTAGTGCAG	3180 fluorescence intensity (a.u.)
17	CGAATGTATTGGAGCCATGCATGCCGTGGCCTTTGATGCACGGAGTCACCTAGTGCAG	32400 fluorescence intensity (a.u.)

# Following part

row,Sequence,binding signal
1,TTGTCATGGAGTTCTACCCGTCTGACGTCGGCGCCCTCGCCGGAGTCACCTAGTGCAG,6180 fluorescence intensity (a.u.)
2,CCCTGCAAGTTGCAATTAATGGTGAGTATGATCTGATCTGCGGAGTCACCTAGTGCAG,3210 fluorescence intensity (a.u.)
3,AAGCTAAGTAAAGTAACAACCTAATCAGATGACACAGCACCGGAGTCACCTAGTGCAG,6750 fluorescence intensity (a.u.)
4,TTCAGGTGATGAGTCAATGGAGGAGGATGTCATGGAGATTCGGAGTCACCTAGTGCAG,4750 fluorescence intensity (a.u.)
5,GCAACGTGTCCGGCCCGCCGGGGTACGTGTCATGTCCTCTCGGAGTCACCTAGTGCAG,7690 fluorescence intensity (a.u.)
6,CGACCCGTTTCCTTCCAACACAAGGCACCTCCACGACGATCGGAGTCACCTAGTGCAG,3360 fluorescence intensity (a.u.)
7,CCAAGATGAACACCACCCTCCACGTCTTCCTATGAACGCACGGAGTCACCTAGTGCAG,6980 fluorescence intensity (a.u.)
8,GAAGCAACATAAAACCCACCATATGGACCAACCGACCTCTCGGAGTCACCTAGTGCAG,3240 fluorescence intensity (a.u.)
9,ACTTACACAGTAGTTACACCTCATTTACACCCCACTTACACGGAGTCACCTAGTGCAG,3480 fluorescence intensity (a.u.)
10,CATCAACGGCGACCAGCTCCGGCGGCCACAACGGCAAGGGCGGAGTCACCTAGTGCAG,21700 fluorescence intensity (a.u.)
11,GCGAGTTGTGAATAGCAATGTGTGCGTGTGCATTCGTGTGCGGAGTCACCTAGTGCAG,4460 fluorescence intensity (a.u.)
12,CAGACCGCGATCCATCGATTTCGAGGATAACTTTTATTTTCGGAGTCACCTAGTGCAG,3310 fluorescence intensity (a.u.)
13,TGCTAGTGCAAATTCAATGGGAAACTAATGTATAACAGGACGGAGTCACCTAGTGCAG,25500 fluorescence intensity (a.u.)
14,TCCACCTGGGTTCAAATCCTAGATTTGACACGGGTGCTCGCGGAGTCACCTAGTGCAG,4830 fluorescence intensity (a.u.)
15,TTTGCTGCCCGTACCTTTCGGTCCTTTGCGATGTCCACCACGGAGTCACCTAGTGCAG,4310 fluorescence intensity (a.u.)
16,TTAGAGGGAATATATATTTCACTGTGATTGCCACGGAGGACGGAGTCACCTAGTGCAG,5120 fluorescence intensity (a.u.)
17,TTTCGGCGAGTCAACATCTGTGACTCACGAATCGGACTTTCGGAGTCACCTAGTGCAG,6560 fluorescence intensity (a.u.)
18,ATGAGCTATAGTTAGGAGTCCGATCGTTTCACATTGACATCGGAGTCACCTAGTGCAG,18000 fluorescence intensity (a.u.)
19,ACCAGTGGCCAAACGTGGCGTGGACGCAGCAAGCGACGGTCGGAGTCACCTAGTGCAG,3270 fluorescence intensity (a.u.)
20,GCGTAGTATGTCACGCTCACGCACACGTCCGCGCGACGCTCGGAGTCACCTAGTGCAG,4530 fluorescence intensity (a.u.)
21,GTATCCTATCTGGTACAAAGTAAATCATGACTCAGGGCAGCGGAGTCACCTAGTGCAG,9160 fluorescence intensity (a.u.)
